From article PMC11079228

B1: PSMC2 (protein, UniProt Q63347 1-433)
chain: MPDYLGADQRKTKEDEKDDKPIRALDEGDIALLKTYGQSTYSRQIKQVEDDIQQLLKKINELTGIKESDTGLAPPALWDLAADKQTLQSEQPLQVARCTKIINADSEDPKYIINVKQFAKFVVDLSDQVAPTDIEEGMRVGVDRNKYQIHIPLPPKIDPTVTMMQVEEKPDVTYSDVGGCKEQIEKLREVVETPLLHPERFVNLGIEPPKGVLLFGPPGTGKTLCARAVANRTDACFIPVIGSELVQKYVGEGARMVRELFEMARTKKACLIFFDEIDAIGGARFDDGAGGDNEVQRTMLELINQLDGFDPRGNIKVLMATNRPDTLDPALMRPGRLDRKIEFSLPDLEGRTHIFKIHARSMSVERDIRFELLARLCPNSTGAEIRSVCTEAGMFAIRARRKIATEKDFLEAVNKVIKSYAKFSATPRYMTYN
B2: CAND1 (protein, UniProt P97536 1-1230)
chain: MASASYHISNLLEKMTSSDKDFRFMATNDLMTELQKDSIKLDDDSERKVVKMILKLLEDKNGEVQNLAVKCLGPLVSKVKEYQVETIVDTLCTNMLSDKEQLRDISSIGLKTVIGELPPASSGSALAANVCKKITGRLTSAIAKQEDVSVQLEALDIMADMLSRQGGLLVNFHPSILTCLLPQLTSPRLAVRKRTIIALGHLVMSCGNIVFVDLIEHLLSELSKNDSMSTTRTYIQCIAAISRQAGHRIGEYLEKIIPLVVKFCNVDDDELREYCIQAFESFVRRCPKEVYPHVSTIINICLKYLTYDPNYNYDDEDEDENAMDADGGDDDDQGSDDEYSDDDDMSWKVRRAAAKCLDAVVSTRHEMLPEFYKTVSPALISRFKEREENVKADVFHAYLSLLKQTRPVQSWLCDPDAMEQGETPLTMLQSQVPNIVKALHKQMKEKSVKTRQCCFNMLTELVNVLPGALTQHIPVLVPGIIFSLNDKSSSSNLKIDALSCLYVILCNHSPQVFHPHVQALVPPVVACVGDPFYKITSEALLVTQQLVKVIRPLDQPSSFDATPYIKDLFTCTIKRLKAADIDQEVKERAISCMGQIICNLGDNLGPDLSNTLQIFLERLKNEITRLTTVKALTLIAGSPLKIDLRPVLGEGVPILASFLRKNQRALKLGTLSALDILIKNYSDSLTAAMIDAVLDELPPLISESDMHVSQMAISFLTTLAKVYPSSLSKISGSILNELIGLVRSPLLQGGALSAMLDFFQALVVTGTNNLGYMDLLRMLTGPVYSQSTALTHKQSYYSIAKCVAALTRACPKEGPAVVGQFIQDVKNSRSTDSIRLLALLSLGEVGHHIDLSGQLELKSVILEAFSSPSEEVKSAASYALGSISVGNLPEYLPFVLQEITSQPKRQYLLLHSLKEIISSASVVGLKPYVENIWALLLKHCECAEEGTRNVVAECLGKLTLIDPETLLPRLKGYLISGSSYARSSVVTAVKFTISDHPQPIDPLLKNCIGDFLKTLEDPDLNVRRVALVTFNSAAHNKPSLIRDLLDSVLPHLYNETKVRKELIREVEMGPFKHTVDDGLDIRKAAFECMYTLLDSCLDRLDIFEFLNHVEDGLKDHYDIKMLTFLMLVRLSTLCPSAVLQRLDRLVEPLRATCTTKVKANSVKQEFEKQDELKRSAMRAVAALLTIPEAEKSPLMSEFQSQISSNPELAAIFESIQKDSSSTNLESMDTS
B3: CLTB (protein, UniProt P08082 1-229)
chain: MAEDFGFFSSSESGAPEAAEEDPAAAFLAQQESEIAGIENDSGFGAPAASQVASAQPGLASGGGSEDMGTTVNGDVFQEANGPADGYAAIAQADRLTQEPESIRKWREEQKKRLQELDAASKVTEQEWREKAKKDLEEWNQRQSEQVEKNKINNRIADKAFYQQPDADTIGYVASEEAFVKESKEETPGTEWEKVAQLCDFNPKSSKQCKDVSRLRSVLMSLKQTPLSR
B4: DSTN (protein, UniProt Q7M0E3 1-165)
chain: MASGVQVADEVCRIFYDMKVRKCSTPEEIKKRKKAVIFCLSADKKCIVVEEGKEILVGDVGVTITDPFKHFVGMLPEKDCRYALYDASFETKESRKEELMFFLWAPEQAPLKSKMIYASSKDAIKKKFPGIKHEYQANGPEDLNRTSIAEKLGGSLIVAFEGSPV
B5: PSMD10 (protein, UniProt Q9Z2X3 1-231)
chain: MEGCVSNLMVCNLAYNGKLDELKESILADKSLATRTDQDSRTALHWACSAGHTEIVEFLLQLGVPVNEKDDAGWSPLHIAASAGRDEIVKALLIKGAQVNAVNQNGCTALHYAASKNRHEIAVMLLEGGANPDAKNHYDATAMHRAAAKGNLKMVHILLFYKASTNIQDTEGNTPLHLACDEERVEEAKLLVTQGASIYIENKEEKTPLQVAKGGLGLILKRIAESEEASM
B6: PICALM (protein, UniProt O55012 1-640)
chain: MSGQSLTDRITAAQHSVTGSAVSKTVCKATTHEIMGPKKKHLDYLIQCTNEMNVNIPQLADSLFERTTNSSWVVVFKSLITTHHLMVYGNERFIQYLASRNTLFNLSNFLDKSGLQGYDMSTFIRRYSRYLNEKAVSYRQVAFDFTKVKRGADGVMRTMNTEKLLKTVPIIQNQMDALLDFNVNSNELTNGVINAAFMLLFKDAIRLFAAYNEGIINLLEKYFDMKKNQCKEGLDIYKKFLTRMTRISEFLKVAEQVGIDRGDIPDLSQAPSSLLDALEQHLASLEGKKIKDSTAASRATTLSNAVSSLASTGLSLTKVDEREKQAALEEEQARLKALKEQRLKELAKKPHTSLTTAASPVSTSAGGIMTAPAIDIFSTPSSSNSTSKLPNDLLDLQQPTFHPSVHAMSAAPQVASTWGDAVDDAIPSLNPFLTKSSGDVHLPISSDVSTFTTRTPTHEMFVGFSPSPVTQPHPSAGLNVDFESVFGNKSTNVAVDSGGGLLKPTVASQNQSLPVAKLPPNKLVSDDLDSSLANLVGNLGIGNGTTKNDVSCSQPGEKKLTGGSNWQPKVAPTTAWSAATMAPPVMAYPATTPTGMIGYGIPPQMGSVPVMTQPTLIYSQPVMRPPNPFGPVPGAQIQFM
B7: CLTA (protein, UniProt P08081 1-248)
chain: MAELDPFGAPAGAPGGPALGNGVAGAGEEDPAAAFLAQQESEIAGIENDEAFAILDGGAPGPQAHGEPPGGPDAVDGVMNGEYYQESNGPTDSYAAISEVDRLQSEPESIRKWREEQTERLEALDANSRKQEAEWKEKAVKELEEWYARQDEQLQKTKASNRVADEAFYKQPFADVIGYVTNINHPCYSLEQAAEEAFVNDIDESSPGTEWERVARLCDFNPKSSKQAKDVSRMRSVLISLKQAPLVH
B8: MCM3 (protein, UniProt D3ZFP4 1-813)
chain: MAGTVVLDDVELREAQRDYLDFLDDEEDQGIYQNKVRELISDNQYRLIVNVNDLRRKNEKRANRLLNNAFEELVAFQRALKDFVASIDATYAKQYEEFYIGLEGSFGSKHVSPRTLTSCFLSCVVCVEGIVTKCSLVRPKVVRSVHYCPATKKTIERRYSDLTTLVAFPSSSVYPTKDEENNPLETEYGLSVYKDHQTITIQEMPEKAPAGQLPRSVDVILDDDLVDKVKPGDRIQVVGTYRCLPGKKGGYTSGTFRTVLIACNVKQMSKDIQPAFSADDIAKIKKFSKTRSKDVFEQLARSLAPSIHGHDYVKKAILCLLLGGVERELENGSHIRGDINILLIGDPSVAKSQLLRYVLCTAPRAIPTTGRGSSGVGLTAAVTTDQETGERRLEAGAMVLADRGVVCIDEFDKMSDMDRTAIHEVMEQGRVTIAKAGIHARLNARCSVLAAANPVYGRYDQYKTPMENIGLQDSLLSRFDLLFIMLDQMDPEQDREISDHVLRMHQYRAPGEQDGDALPLGSSVDILATDDPDFTQDDQQDTRIYEKHDNLLHGSKKKREKMVSAAFMKKYIHVAKIIKPTLTQESAAYIAEEYSRLRSQDSMSSDTARTSPVTARTLETLIRLATAHAKARMSKTVDLQDAEEAVELVQYAYFKKVLEKEKKRKKPSEDESDLEDEEEKSQEEDTEQTRKRRKTQAKDGESYDPYDFSEAEREMPQVHTPKTDDSQEKTDESQETQESQKVELSESRLKAFKAALLEVFQEAHAQSVGMIHLTESINRNKEEPFSSEEIQASLSRMQDDNQVMVSEGIVFLI

Target: Huntingtin-interacting protein 1 (rat) (rat (endogenous in rat FLS))
Assay: affinity purification with mass spectrometry; rabbit anti-rat-HIP1 antibody (20 μg per sample) on Dynabeads M-270 Epoxy; total lysates of rat FLS (one DA and one R6 cell line, each in triplicate), starved 24 h, then PDGFβ 100 ng/mL 30 min; lysis in water with protease and phosphatase inhibitors by three freeze-thaw cycles; elution with 8 M urea, LysC and trypsin, nano-LC-MS/MS, label-free quantitation

binding, binds:
B1
B2
B3
B4
B5
B6
B7
B8

Results are given in words; binding and its absence hold for the method and conditions named. Binding seen in cells or lysates may run through a third protein. A yes stands for co-enrichment or nearness to the bait. Other partners may have been found.
